PubChem BioAssay AID1259254 – NCATS | 2017
Shown is an unselected part of about 59,000 deposited reagents. Over the whole deposit, about 1,550 (2.6%) were called active. 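G2 share is only a proxy for re-replication; each gene was hit by three separate siRNAs, and active genes were retested.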 Raw values are not corrected between plates. A number with no mark means an inactive call. The numbers tell different reagents against one gene apart. Not stated in the record: the amount of reagent.

Test: 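Finding genes that stop cells copying their DNA twice in one cycle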 (primary screen)
System: human HCT116 colorectal cancer cells
Knock-down reagent: single siRNA against human genes
Timing: 3 days
Measured: 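Imaged Hoechst DNA stain sorts each cell into a cycle phase by DNA amount; per plate, G2 fraction set to 0% for non-targeting and 100% for GMNN siRNA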
Reading the numbers: G2 robust z-score and G2 cells, % of GMNN control: higher = more G2 cells, more excess DNA replication; raw share of cells in G2: higher = larger share of cells with G2 DNA content
Call rule: 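Active siRNAs have a G2 robust z of 5 or more median absolute deviations over the median, which in these data means about 38% or higher of GMNN control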

target | reagent no. | G2 robust z-score | G2 cells, % of GMNN control | raw share of cells in G2 (%)
GPR32 | 1 | -1.01 | -4.15 | 4.36
GPR32 | 2 | 0.796 | 8.57 | 7.51
GPR32 | 3 | 1.77 | 15.4 | 8
PRR14L | 1 | 1.03 | 10.2 | 7.29
PRR14L | 2 | -0.394 | 0.193 | 3.2
PRR14L | 3 | 6.4 (active) | 48 | 18.5
TTLL12 | 1 | -0.337 | 0.593 | 5.22
TTLL12 | 2 | 1.15 | 11 | 8.69
TTLL12 | 3 | 0.0762 | 3.5 | 4.48
GPATCH11 | 1 | 1.12 | 10.8 | 7.51
GPATCH11 | 2 | 1.99 | 17 | 8.95
GPATCH11 | 3 | 1.23 | 11.6 | 6.9
LPO | 1 | -1.35 | -6.5 | 2.89
LPO | 2 | -0.817 | -2.78 | 4.29
LPO | 3 | -0.55 | -0.904 | 2.9
FBXO33 | 1 | -0.23 | 1.35 | 3.62
FBXO33 | 2 | 0.386 | 5.68 | 5.64
FBXO33 | 3 | -0.413 | 0.0636 | 3.15
LOC339902 | 1 | -0.889 | -3.29 | 2.86
LOC339902 | 2 | -0.853 | -3.03 | 1.93
LOC339902 | 3 | -0.764 | -2.41 | 3.22
PAIP2 | 1 | -0.0517 | 2.6 | 4.85
PAIP2 | 2 | 2.94 | 23.7 | 13.5
PAIP2 | 3 | -0.147 | 1.94 | 3.86
GART | 1 | 0.69 | 7.82 | 6.44
GART | 2 | 2.57 | 21 | 13.3
GART | 3 | -0.294 | 0.9 | 5.56
NTPCR | 1 | 0.412 | 5.87 | 6.06
NTPCR | 2 | -0.407 | 0.107 | 3.49
NTPCR | 3 | -0.815 | -2.77 | 1.57
